Experimental data from PubChem BioAssay AID2551 (National Center for Advancing Translational Sciences (NCATS), 2010).
Among all 310,000 compounds or so, about 17,000 (5.5%) were called active. Inconclusive results, whose numbers are uncertain, are shown with a selection of clear calls. Calls follow the shape of the dose curve; as a rule, active = well fitted inhibition curve with a large enough effect; inconclusive = small, poorly fitted or top-dose-only effect, or effect the other way; inactive = no such curve, though single readings can be large or run the other way. Where the call is inconclusive, the potency comes from a doubtful curve fit.

Amino acid sequences for entries named in this document (tags omitted). A change or cut given only in a name is not applied to a line headed by its entry.
UniProt P51450: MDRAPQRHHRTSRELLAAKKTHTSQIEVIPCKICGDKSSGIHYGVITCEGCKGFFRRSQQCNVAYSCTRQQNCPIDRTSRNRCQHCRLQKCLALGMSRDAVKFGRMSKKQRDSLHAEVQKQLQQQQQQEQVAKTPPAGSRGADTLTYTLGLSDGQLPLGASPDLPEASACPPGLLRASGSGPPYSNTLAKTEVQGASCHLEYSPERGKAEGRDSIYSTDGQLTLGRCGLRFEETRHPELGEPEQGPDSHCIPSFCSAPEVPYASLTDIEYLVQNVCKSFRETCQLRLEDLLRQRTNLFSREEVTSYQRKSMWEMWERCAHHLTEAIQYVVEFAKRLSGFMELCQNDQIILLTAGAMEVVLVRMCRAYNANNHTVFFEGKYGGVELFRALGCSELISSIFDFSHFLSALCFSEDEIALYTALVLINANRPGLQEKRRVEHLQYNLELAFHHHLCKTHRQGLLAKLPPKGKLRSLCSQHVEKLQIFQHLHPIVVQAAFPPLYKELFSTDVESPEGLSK

target: Nuclear receptor ROR-gamma (Mus musculus) (UniProt P51450); experiment: qHTS for inhibitors of ROR gamma transcriptional activity; settings: Drosophila S2 Gal4-RORgamma UAS-luciferase reporter, 20 h; activity change, negative = inhibition: at 53.6 µM (top of the series); also: nearly all actives have a fitted effect of over 60% in size
In short: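 Read-out: Photinus luciferase luminescence; inhibitors lower reporter signal. Insect Schneider cells with Gal4-ROR gamma fusion under metallothionein promoter, UAS reporter; 700 uM final copper sulfate induction, 20 hr, ambient temperature.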
% is scaled to controls: 0 for no effect and ±100 for the full control effect; potency is read from the fitted curve at half-maximal effect.

| SMILES | Potency | activity change, negative = inhibition |
| --- | --- | --- |
| Cc1ccc(-c2nnc(-c3ccccc3)o2)cc1 | inconclusive: 10 µM [inhibitor, partial curve, poor fit] | – |
| Cc1ccc(C(=O)N/C(=C/c2ccco2)C(=O)N2CCOCC2)cc1 | – | inactive: 40% |
| O=C1OC(Nc2cc(Br)cc3cccnc23)c2ccccc21 (stereo unspecified) | inconclusive: 31.6 µM [inhibitor, single point] | – |
| Cc1ccnc(NC(=S)NC(=O)/C=C/c2ccccc2)c1 | active: 2.82 µM | – |
| N=c1c2c(ncn1CCCO)Oc1c(ccc3ccccc13)C2c1ccccc1 (stereo unspecified) | active: 17.8 µM | – |
| CSCCOC(=O)c1[nH]c2c(c1C)C(=O)CC(c1ccco1)C2 (stereo unspecified) | inconclusive: 14.1 µM [activator, partial curve] | – |
| CCn1c(=O)c(C(=O)NCc2ccc(OC)c(OC)c2)c(O)c2ccccc21 | inconclusive: 0.0891 µM [inhibitor, full curve, poor fit] | – |
| CCCCOc1cc(C(=O)NCCN(CC)CC)c2ccccc2n1 | inactive | – |
| CCC1(CC)Cc2ccccc2-c2nc(CN(C)C)[nH]c(=O)c21 | active: 6.31 µM | – |
| O=S(=O)(c1ccccc1)N(CC1CO1)c1cccc2ccccc12 (stereo unspecified) | inconclusive: 10 µM [activator, partial curve] | – |
| COc1ccccc1NS(=O)(=O)c1ccc(NN=C2CCCC2)c([N+](=O)[O-])c1 | inconclusive: 7.08 µM [activator, partial curve] | – |
| Cc1c(NN=C(C#N)C#N)c(=O)n(-c2ccccc2)n1C | inconclusive: 17.8 µM [inhibitor, single point] | – |
| N/C(CC(=O)NC1CCCCC1)=N\OCC(=O)Nc1ccc(Cl)c(Cl)c1 | inconclusive: 15.8 µM [activator, single point] | – |
| COc1ccccc1N1CCN(/N=C\C(Br)=C\c2ccccc2)CC1 | inconclusive: 17.8 µM [inhibitor, single point] | – |
| O=C(Nc1ccccc1)N1CCCN(c2ccc(C(F)(F)F)cc2[N+](=O)[O-])CC1 | inconclusive: 35.5 µM [activator, single point] | – |
| Cc1ccc(NC(=O)/C=C/c2ccc(Cl)cc2)nc1 | – | inactive: 2.38% |
| CCN(CC(=O)NC(=O)NC1CCCCC1)Cc1nc2ccccc2c(=O)[nH]1 | active: 0.562 µM | – |
| CC(=O)c1ccc(NC(=O)COC(=O)c2ccccc2N=Nc2ccc(N(C)C)cc2)cc1 | inconclusive: 2 µM [activator, single point] | – |
| CCN1C(=O)/C(=C\c2cn(CCC#N)nc2-c2ccc(F)cc2)SC1=S | inconclusive: 8.91 µM [activator, partial curve] | – |
| CC(C)c1ccc(S(=O)(=O)Nc2ccc(O)c(Sc3ncn[nH]3)c2)cc1 | inconclusive: 31.6 µM [activator, single point] | – |
| O=C1C2C3C=CC(C4CC34)C2C(=O)N1c1cccc2ccccc12 (stereo unspecified) | – | inactive: -1.37% |
| CCCCC/C=C\C/C=C\C/C=C\C/C=C\CCCCCC(=O)NCCCC(=O)O | – | inactive: 10.2% |
| CC(=O)Nc1cccc(NC(=O)C2CC(=O)N(CCc3ccc(F)cc3)C2)c1 (stereo unspecified) | – | inactive: -11.4% |

| SMILES | Potency | activity change, negative = inhibition |
| --- | --- | --- |
| CCCn1c(SCC(=O)Nc2ccc(C)c(S(=O)(=O)N3CCOCC3)c2)n[nH]c1=O | inconclusive: 12.6 µM [activator, single point] | – |
| NC(=O)C1CC(=O)N(c2ccc(OCC(=O)NCc3ccccc3)cc2)C1 (stereo unspecified) | – | inactive: -32.6% |
| O=C(Nc1ccc(Cl)cc1)C1CCC(=O)N1Cc1ccccc1Cl (stereo unspecified) | inconclusive: 1.41 µM [activator, full curve, poor fit] | – |
| Nc1nc(=S)[nH]c2c1C1(CCCC1)Cc1ccccc1-2 | active: 6.31 µM | – |
| COc1ccc2nc(Nc3nc(-c4cc5ccccc5oc4=O)cs3)sc2c1 | active: 7.08 µM | – |
| CC(=O)Nc1ccc(OS(=O)(=O)c2ccc([N+](=O)[O-])cc2)cc1 | – | inactive: 7.53% |
| COc1cccc(CC2(CO)CCCN(Cc3cc4ccccc4[nH]3)C2)c1 (stereo unspecified) | – | inactive: 12% |
| O=C(c1cccc(Oc2ccc([N+](=O)[O-])cc2Cl)c1)N1CCCCC1 | inconclusive: 12.6 µM [activator, single point] | – |
| COc1cc(C(=O)NCc2nnc(SCC(=O)Nc3cc(C)cc(C)c3)o2)cc(OC)c1OC | inconclusive: 10 µM [activator, partial curve] | – |
| COc1ccccc1OCC(=O)n1cc(C(=O)c2cc(Cl)cc(Cl)c2O)cn1 | inconclusive: 22.4 µM [inhibitor, single point] | – |
| CCNc1c(NS(=O)(=O)c2ccc([N+](=O)[O-])cc2)c(=O)oc2ccccc12 | inconclusive: 35.5 µM [inhibitor, single point] | – |
| COc1cc(S(=O)(=O)N2CCN=C2c2ccccc2)c(OC)cc1Cl | inconclusive: 8.91 µM [inhibitor, partial curve] | – |
| O=C(NCc1ccccc1)Nc1cccn(Cc2ccccc2Cl)c1=O | inconclusive: 10 µM [activator, partial curve] | – |
| Cc1cccc(N2C(=O)/C(=C\c3ccc(OC(F)F)cc3)c3ccccc3C2=O)c1 | – | inactive: 1.6% |
| O=C1CC(SCc2nc3ccccc3[nH]2)C(=O)N1c1ccc(Cl)cc1 (stereo unspecified) | active: 3.55 µM | – |
| Cc1ccc(C(C)C)c(OCC(O)CN2CCc3ccccc3C2)c1 (stereo unspecified) | – | inactive: -6.34% |
| OC(CNCCC(c1ccccc1)c1ccccc1)COc1ccccc1 (stereo unspecified) | inconclusive: 22.4 µM [inhibitor, single point] | – |
| CN(C)c1ccc(NC(=O)CSc2nc3c(c(=O)[nH]2)CCCC3)cc1 | inconclusive: 35.5 µM [activator, single point] | – |
| O=C(N/N=C\c1cccc([N+](=O)[O-])c1O)C1COc2ccccc2O1 (stereo unspecified) | active: 1.78 µM | – |
| CCNc1nc(NC(N)=S)nc(NC(C)(C)C)n1 | inconclusive: 25.1 µM [inhibitor, single point] | – |
| Cc1cc(C)n2c(=S)[nH]nc2n1 | – | inactive: -108% |
| Cc1cccc(COc2ncnc3nc[nH]c23)c1 | inconclusive: 35.5 µM [activator, single point] | – |
| COCCNC(=S)N(CCc1c(C)[nH]c2ccc(Cl)cc12)Cc1cccs1 | inconclusive: 35.5 µM [inhibitor, single point] | – |

Copied from the listing (3 entries):

| SMILES | Potency | activity change, negative = inhibition |
| --- | --- | --- |
| CCNc1c(NS(=O)(=O)c2ccc([N+](=O)[O-])cc2)c(=O)oc2ccccc12 | inconclusive: 35.5 µM [inhibitor, single point] | – |
| COc1cc(S(=O)(=O)N2CCN=C2c2ccccc2)c(OC)cc1Cl | inconclusive: 8.91 µM [inhibitor, partial curve] | – |
| O=C(NCc1ccccc1)Nc1cccn(Cc2ccccc2Cl)c1=O | inconclusive: 10 µM [activator, partial curve] | – |
